Measurements reported in PubChem BioAssay AID1671195 (Yale University, 2021).
Aim: 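Genes whose knockdown alters LDL uptake in liver cancer cells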 (primary screen). Cells: human Huh7 hepatoma cells. Reagents: siRNA pool against human genes, 18 nM. Timing: about 2 to 2.5 days of knockdown, then 8 h LDL uptake. Treatment: DiI-labelled LDL at 30 µg/ml for 8 h, in lipoprotein-deficient serum medium. Read-out: 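Per-cell DiI-LDL intensity by automated imaging; well means scaled to the plate median and given as a robust z-score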. Reading the numbers: robust z-score: higher = more LDL uptake after knockdown. Rule for the call: 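a gene counts as active if at least two replicate z-scores exceed ±2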.
In all, the deposit lists about 22,000 reagents; shown is a part drawn at random. About 1,510 of all reagents (6.9%) were called active. 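Active includes knockdowns raising or lowering LDL uptake; positive z-scores mean more uptake, negative mean less.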

Silencing of RAN (RAN, member RAS oncogene family) came out at: robust z-score, replicate 1 = 1.07; robust z-score, replicate 2 = -0.038; robust z-score, replicate 3 = 1.56; inactive.
After knock-down of CAMTA1 (calmodulin binding transcription activator 1) the results were robust z-score, replicate 1 = 0.718; robust z-score, replicate 2 = -0.178; robust z-score, replicate 3 = 1.43; inactive.
BLOC1S6 (biogenesis of lysosomal organelles complex 1 subunit 6) scored robust z-score, replicate 1 = 1.22; robust z-score, replicate 2 = 1.88; robust z-score, replicate 3 = 1.25; inactive.
Against NYNRIN (NYN domain and retroviral integrase containing) the deposit lists robust z-score, replicate 1 = -1.03; robust z-score, replicate 2 = -0.0338; robust z-score, replicate 3 = 0.804; inactive.
Silencing of MTNAP1 (mitochondrial nucleoid associated protein 1) gave: robust z-score, replicate 1 = -0.992; robust z-score, replicate 2 = 0.439; robust z-score, replicate 3 = -0.482; inactive.
With knock-down of LDLRAD1 (low density lipoprotein receptor class A domain containing 1) the results were robust z-score, replicate 1 = 0.795; robust z-score, replicate 2 = 1.06; robust z-score, replicate 3 = 0.932; inactive.
Depletion of IQCM (IQ motif containing M) resulted in: robust z-score, replicate 1 = -0.949; robust z-score, replicate 2 = -0.631; robust z-score, replicate 3 = -0.726; inactive.
Depletion of LOC728743 (zinc finger domain-containing protein LOC728743) came out at: robust z-score, replicate 1 = 0.462; robust z-score, replicate 2 = 0.846; robust z-score, replicate 3 = -0.0215; inactive.
RUSC2 (RUN and SH3 domain containing 2) showed robust z-score, replicate 1 = -0.0537; robust z-score, replicate 2 = -1.12; robust z-score, replicate 3 = -2.13; inactive.

A run of entries of the results above:
MTNAP1 (mitochondrial nucleoid associated protein 1): robust z-score, replicate 1 = -0.992; robust z-score, replicate 2 = 0.439; robust z-score, replicate 3 = -0.482; outcome = inactive
LDLRAD1 (low density lipoprotein receptor class A domain containing 1): robust z-score, replicate 1 = 0.795; robust z-score, replicate 2 = 1.06; robust z-score, replicate 3 = 0.932; outcome = inactive

The list goes on:
Knock-down of KLF13 (KLF transcription factor 13) came out at: robust z-score, replicate 1 = -0.633; robust z-score, replicate 2 = -0.698; robust z-score, replicate 3 = -0.296; inactive.
With knock-down of CD276 (CD276 molecule) the results were robust z-score, replicate 1 = 0.278; robust z-score, replicate 2 = -0.524; robust z-score, replicate 3 = -0.263; inactive.
For LOC401357, the entry reads robust z-score, replicate 1 = 0.0351; robust z-score, replicate 2 = -0.156; robust z-score, replicate 3 = -0.475; inactive.
With knock-down of GREM2 (gremlin 2, DAN family BMP antagonist), the screen gave robust z-score, replicate 1 = -0.945; robust z-score, replicate 2 = -1.01; robust z-score, replicate 3 = -0.203; inactive.
Silencing of ORAI3 (ORAI calcium release-activated calcium modulator 3) resulted in: robust z-score, replicate 1 = 0.119; robust z-score, replicate 2 = 0.0758; robust z-score, replicate 3 = 0.181; inactive.
Knock-down of ITPK1 (inositol-tetrakisphosphate 1-kinase) gave: robust z-score, replicate 1 = -0.0198; robust z-score, replicate 2 = 0.924; robust z-score, replicate 3 = 0.494; inactive.
ACLY (ATP citrate lyase) scored robust z-score, replicate 1 = 0.514; robust z-score, replicate 2 = 0.335; robust z-score, replicate 3 = 0.473; inactive.
SPCS1 (signal peptidase complex subunit 1) showed robust z-score, replicate 1 = 0.779; robust z-score, replicate 2 = -0.742; robust z-score, replicate 3 = 0.408; inactive.
Knock-down of KY (kyphoscoliosis peptidase) came out at: robust z-score, replicate 1 = -0.27; robust z-score, replicate 2 = -0.198; robust z-score, replicate 3 = -0.184; inactive.
With knock-down of CLC (Charcot-Leyden crystal galectin), the screen gave robust z-score, replicate 1 = -1.3; robust z-score, replicate 2 = -0.573; robust z-score, replicate 3 = -1.5; inactive.
After knock-down of NR0B2 (nuclear receptor subfamily 0 group B member 2), the screen gave robust z-score, replicate 1 = -0.231; robust z-score, replicate 2 = -0.0342; robust z-score, replicate 3 = -0.437; inactive.
For GPR148 (G protein-coupled receptor 148), the entry reads robust z-score, replicate 1 = -1.43; robust z-score, replicate 2 = -1.82; robust z-score, replicate 3 = -1.55; inactive.
OR2M2 (olfactory receptor family 2 subfamily M member 2) gave robust z-score, replicate 1 = 1.39; robust z-score, replicate 2 = 1.76; robust z-score, replicate 3 = 2.24; inactive.
With knock-down of SMIM21 (small integral membrane protein 21), the record shows robust z-score, replicate 1 = -1.03; robust z-score, replicate 2 = -0.856; robust z-score, replicate 3 = -0.926; inactive.
After knock-down of KRTAP6-3 (keratin associated protein 6-3), the screen gave robust z-score, replicate 1 = 0.639; robust z-score, replicate 2 = 0.619; robust z-score, replicate 3 = 0.455; inactive.
